{"source": "the supplement of paper PMC8728848", "binders": {"B1": {"name": "AntigenI/IIA3VP1 (Streptococcus mutans), C9E3B4 (protein)", "chain": "AANEADYQAKLTAYQTELARVQKANADAKAAYEAAVAANNAANAALTAENTAIKKRNADAKADYEAKLAKYQADLAKYQKDLADYPVKLKAYEDEQASIKAALAELEKHKNEDGNLTEPSAQNLVYDLEPNANLSLTTDGKFLKASAVDDAFSKSTSKAKYDQKILQLDDLDITNLEQSNDVASSMELYGNFGDKAGWSTTVSNNSQVKWGSVLLERGQSATATYTNLQNSYYNGKKISKIVYKYTVDPKSKFQGQKVWLGIFTDPTLGVFASAYTGQVEKNTSIFIKNEFTFYDEDGKPINFDNALLSVASLNREHNSIEMAKDYSGKFVKISGSSIGEKNGMIYATDTLNFKQGEGGSRWTMYKNSQAGSGWDSSDAPNSWYGAGAIKMSGPNNYVTVGATSATNVMPVSDMPVVPGKDNTDGKKPNIWYSLNGKIRAVNVPKVTKEKPTPPVKPTAPTKPTYETEKPLKPAPVAPNYEKEPTPPTRLEHHHHHH"}}, "experiment_in_all_cases": "glycan array binding signal (z-score within array); higher = stronger binding", "details_in_all_cases": "glycan notation: IUPAC condensed, linker removed", "key": {"[1]": {"target": "GalNAc3S(b1-4)[Fuc(a1-3)]GlcNAc", "summary_of_the_method": "(§1)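 From the Consortium for Functional Glycomics database, 3228 arrays were curated, keeping only those whose protein sequence was available. Binding is given as a within-array Z-score averaged across arrays sharing a protein sequence and across linkers. Negative Z-scores can be read as non-binding.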"}, "[2]": {"target": "GalNAc4S6S(b1-4)GlcNAc", "summary_of_the_method": "as §1"}, "[3]": {"target": "GalNAc6S(b1-4)GlcNAc", "summary_of_the_method": "as §1"}, "[4]": {"target": "Glc(a1-4)Glc", "summary_of_the_method": "as §1"}, "[5]": {"target": "Glc(a1-4)Glc(a1-4)Glc(a1-4)Glc", "summary_of_the_method": "as §1"}, "[6]": {"target": "Glc(a1-6)Glc(a1-6)Glc", "summary_of_the_method": "as §1"}, "[7]": {"target": "Glc(a1-6)Glc(a1-6)Glc(a1-6)Glc", "summary_of_the_method": "as §1"}, "[8]": {"target": "Glc(b1-4)Glc", "summary_of_the_method": "as §1"}, "[9]": {"target": "Glc(b1-6)Glc", "summary_of_the_method": "as §1"}, "[10]": {"target": "GlcA(b1-3)Gal", "summary_of_the_method": "as §1"}, "[11]": {"target": "GlcA(b1-3)GlcNAc", "summary_of_the_method": "as §1"}, "[12]": {"target": "GlcA(b1-6)Gal", "summary_of_the_method": "as §1"}, "[13]": {"target": "GlcA3S(b1-3)Gal(b1-4)GlcNAc(b1-2)Man", "summary_of_the_method": "as §1"}, "[14]": {"target": "GlcA3S(b1-3)Gal(b1-4)GlcNAc(b1-3)Gal(b1-4)Glc", "summary_of_the_method": "as §1"}, "[15]": {"target": "GlcNAc(a1-3)Gal(b1-4)GlcNAc", "summary_of_the_method": "as §1"}, "[16]": {"target": "GlcNAc(a1-4)Gal(b1-3)GlcNAc", "summary_of_the_method": "as §1"}, "[17]": {"target": "GlcNAc(a1-4)Gal(b1-4)GalNAc", "summary_of_the_method": "as §1"}, "[18]": {"target": "GlcNAc(a1-4)Gal(b1-4)GlcNAc", "summary_of_the_method": "as §1"}, "[19]": {"target": "GlcNAc(a1-4)Gal(b1-4)GlcNAc(b1-3)Gal(b1-4)Glc", "summary_of_the_method": "as §1"}, "[20]": {"target": "GlcNAc(a1-4)Gal(b1-4)GlcNAc(b1-3)Gal(b1-4)GlcNAc", "summary_of_the_method": "as §1"}, "[21]": {"target": "GlcNAc(a1-4)Gal(b1-4)GlcNAc(b1-3)Gal(b1-4)GlcNAc(b1-3)Gal(b1-4)GlcNAc", "summary_of_the_method": "as §1"}, "[22]": {"target": "GlcNAc(a1-4)Gal(b1-4)GlcNAc(b1-3)Gal(b1-4)[Fuc(a1-3)]GlcNAc(b1-3)Gal(b1-4)[Fuc(a1-3)]GlcNAc", "summary_of_the_method": "as §1"}, "[23]": {"target": "GlcNAc(a1-6)Gal(b1-4)GlcNAc", "summary_of_the_method": "as §1"}, "[24]": {"target": "GlcNAc(b1-2)Gal(b1-3)GalNAc", "summary_of_the_method": "as §1"}, "[25]": {"target": "GlcNAc(b1-2)Man(a1-3)[GlcNAc(b1-2)Man(a1-6)]Man(b1-4)GlcNAc(b1-4)GlcNAc", "summary_of_the_method": "as §1"}, "[26]": {"target": "GlcNAc(b1-2)Man(a1-3)[GlcNAc(b1-2)Man(a1-6)]Man(b1-4)GlcNAc(b1-4)[Fuc(a1-6)]GlcNAc", "summary_of_the_method": "as §1"}, "[27]": {"target": "GlcNAc(b1-2)Man(a1-3)[GlcNAc(b1-4)][GlcNAc(b1-2)Man(a1-6)]Man(b1-4)GlcNAc(b1-4)GlcNAc", "summary_of_the_method": "as §1"}, "[28]": {"target": "GlcNAc(b1-2)Man(a1-3)[GlcNAc(b1-4)][GlcNAc(b1-2)Man(a1-6)]Man(b1-4)GlcNAc(b1-4)[Fuc(a1-6)]GlcNAc", "summary_of_the_method": "as §1"}, "[29]": {"target": "GlcNAc(b1-2)[GlcNAc(b1-4)]Man(a1-3)[GlcNAc(b1-2)Man(a1-6)]Man(b1-4)GlcNAc(b1-4)GlcNAc", "summary_of_the_method": "as §1"}, "[30]": {"target": "GlcNAc(b1-2)[GlcNAc(b1-4)]Man(a1-3)[GlcNAc(b1-4)][GlcNAc(b1-2)Man(a1-6)]Man(b1-4)GlcNAc(b1-4)GlcNAc", "summary_of_the_method": "as §1"}, "[31]": {"target": "GlcNAc(b1-2)[GlcNAc(b1-4)]Man(a1-3)[GlcNAc(b1-4)][GlcNAc(b1-2)[GlcNAc(b1-6)]Man(a1-6)]Man(b1-4)GlcNAc(b1-4)GlcNAc", "summary_of_the_method": "as §1"}, "[32]": {"target": "GlcNAc(b1-2)[GlcNAc(b1-4)]Man(a1-3)[GlcNAc(b1-4)][GlcNAc(b1-2)[GlcNAc(b1-6)]Man(a1-6)]Man(b1-4)GlcNAc(b1-4)[Fuc(a1-6)]GlcNAc", "summary_of_the_method": "as §1"}, "[33]": {"target": "GlcNAc(b1-2)[GlcNAc(b1-6)]Man(a1-6)[GlcNAc(b1-2)Man(a1-3)]Man(b1-4)GlcNAc(b1-4)GlcNAc", "summary_of_the_method": "as §1"}, "[34]": {"target": "GlcNAc(b1-2)[GlcNAc(b1-6)]Man(a1-6)[GlcNAc(b1-2)Man(a1-3)]Man(b1-4)GlcNAc(b1-4)[Fuc(a1-6)]GlcNAc", "summary_of_the_method": "as §1"}, "[35]": {"target": "GlcNAc(b1-2)[GlcNAc(b1-6)]Man(a1-6)[GlcNAc(b1-4)][GlcNAc(b1-2)Man(a1-3)]Man(b1-4)GlcNAc(b1-4)GlcNAc", "summary_of_the_method": "as §1"}, "[36]": {"target": "GlcNAc(b1-3)Fuc", "summary_of_the_method": "as §1"}, "[37]": {"target": "GlcNAc(b1-3)Gal", "summary_of_the_method": "as §1"}, "[38]": {"target": "GlcNAc(b1-3)Gal(b1-3)GalNAc", "summary_of_the_method": "as §1"}}, "note": "The list shows a part of the results."}
{"binder": "B1", "values": [{"measurement": "glycan array binding signal (z-score)", "setting": "[1]", "result": -0.56}, {"measurement": "glycan array binding signal (z-score)", "setting": "[2]", "result": -0.462}, {"measurement": "glycan array binding signal (z-score)", "setting": "[3]", "result": 0.953}, {"measurement": "glycan array binding signal (z-score)", "setting": "[4]", "result": -0.184}, {"measurement": "glycan array binding signal (z-score)", "setting": "[5]", "result": -1.19}, {"measurement": "glycan array binding signal (z-score)", "setting": "[6]", "result": -0.587}, {"measurement": "glycan array binding signal (z-score)", "setting": "[7]", "result": 0.177}, {"measurement": "glycan array binding signal (z-score)", "setting": "[8]", "result": -0.227}, {"measurement": "glycan array binding signal (z-score)", "setting": "[9]", "result": -0.364}, {"measurement": "glycan array binding signal (z-score)", "setting": "[10]", "result": -1.1}, {"measurement": "glycan array binding signal (z-score)", "setting": "[11]", "result": -0.575}, {"measurement": "glycan array binding signal (z-score)", "setting": "[12]", "result": 0.669}, {"measurement": "glycan array binding signal (z-score)", "setting": "[13]", "result": -1.08}, {"measurement": "glycan array binding signal (z-score)", "setting": "[14]", "result": -0.669}, {"measurement": "glycan array binding signal (z-score)", "setting": "[15]", "result": -0.724}, {"measurement": "glycan array binding signal (z-score)", "setting": "[16]", "result": -0.218}, {"measurement": "glycan array binding signal (z-score)", "setting": "[17]", "result": -0.793}, {"measurement": "glycan array binding signal (z-score)", "setting": "[18]", "result": -0.916}, {"measurement": "glycan array binding signal (z-score)", "setting": "[19]", "result": 0.082}, {"measurement": "glycan array binding signal (z-score)", "setting": "[20]", "result": 1.47}, {"measurement": "glycan array binding signal (z-score)", "setting": "[21]", "result": -0.892}, {"measurement": "glycan array binding signal (z-score)", "setting": "[22]", "result": 0.07}, {"measurement": "glycan array binding signal (z-score)", "setting": "[23]", "result": 0.177}, {"measurement": "glycan array binding signal (z-score)", "setting": "[24]", "result": -1.06}, {"measurement": "glycan array binding signal (z-score)", "setting": "[25]", "result": -0.622}, {"measurement": "glycan array binding signal (z-score)", "setting": "[26]", "result": -0.727}, {"measurement": "glycan array binding signal (z-score)", "setting": "[27]", "result": -1.11}, {"measurement": "glycan array binding signal (z-score)", "setting": "[28]", "result": 1.46}, {"measurement": "glycan array binding signal (z-score)", "setting": "[29]", "result": -0.123}, {"measurement": "glycan array binding signal (z-score)", "setting": "[30]", "result": -1.35}, {"measurement": "glycan array binding signal (z-score)", "setting": "[31]", "result": -0.895}, {"measurement": "glycan array binding signal (z-score)", "setting": "[32]", "result": -0.588}, {"measurement": "glycan array binding signal (z-score)", "setting": "[33]", "result": 0.082}, {"measurement": "glycan array binding signal (z-score)", "setting": "[34]", "result": 0.954}, {"measurement": "glycan array binding signal (z-score)", "setting": "[35]", "result": -0.814}, {"measurement": "glycan array binding signal (z-score)", "setting": "[36]", "result": -1.02}, {"measurement": "glycan array binding signal (z-score)", "setting": "[37]", "result": -0.153}, {"measurement": "glycan array binding signal (z-score)", "setting": "[38]", "result": -0.295}]}
